Measured values as given in article doi:10.1101/2023.12.13.571441.

Biological target: T1, CviR (Chromobacterium violaceum ATCC 12472) (UniProt Q7NQP7)
T1 sequence: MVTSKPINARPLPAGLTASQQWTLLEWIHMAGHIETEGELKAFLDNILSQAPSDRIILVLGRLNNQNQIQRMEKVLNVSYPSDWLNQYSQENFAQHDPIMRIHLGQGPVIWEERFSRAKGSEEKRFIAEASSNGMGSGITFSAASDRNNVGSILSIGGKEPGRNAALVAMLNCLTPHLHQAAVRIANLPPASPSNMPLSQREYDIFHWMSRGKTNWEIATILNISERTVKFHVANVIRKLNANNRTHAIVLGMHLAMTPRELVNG
Experiment: two-hybrid

## VioS (Chromobacterium violaceum ATCC 12472)
  binding: binds

No constants are given. Whether binding was seen depends on the method and setting. A result given as binding can be weak or reduced; the word gives no strength.
